Source: patent US20160355575A1
These are yes or no findings as the source states them, for the method shown. Some binding calls cover weakened binding; strength is not graded here.

Chains of the proteins cited; added tags and fusions are not shown. Residues count along the entry.
Amyloid plaques (fibrillar amyloid β deposits in brain tissue) (P05067, residues 672-713): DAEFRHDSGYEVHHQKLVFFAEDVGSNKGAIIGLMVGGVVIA
Amyloid angiopathy (CAA), vascular amyloid β deposits (P05067, residues 672-711): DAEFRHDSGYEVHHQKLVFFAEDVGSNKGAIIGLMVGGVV

Assays:
[1] = biological target: Amyloid angiopathy (CAA), vascular amyloid β deposits (human AD brain; transgenic mouse models) (UniProt P05067); experiment: labeling, summary of Table 1
[2] = biological target: Amyloid angiopathy (CAA), vascular amyloid β deposits (human AD brain; transgenic mouse models) (UniProt P05067); experiment: labeling, Table 1
[3] = biological target: Amyloid plaques (fibrillar amyloid β deposits in brain tissue) (human AD brain; transgenic mouse models) (UniProt P05067); experiment: immunohistochemistry
[4] = biological target: Amyloid plaques (fibrillar amyloid β deposits in brain tissue) (human AD brain; transgenic mouse models) (UniProt P05067); experiment: immunohistochemistry, human AD brain sections
[5] = biological target: Amyloid plaques (fibrillar amyloid β deposits in brain tissue) (human AD brain; transgenic mouse models) (UniProt P05067); experiment: IHC after in vivo injection
[6] = biological target: Amyloid plaques (fibrillar amyloid β deposits in brain tissue) (human AD brain; transgenic mouse models) (UniProt P05067); experiment: labeling, Table 1 (row printed for R3VE and R3VQ together)
[7] = biological target: Amyloid plaques (fibrillar amyloid β deposits in brain tissue) (human AD brain; transgenic mouse models) (UniProt P05067); experiment: IHC after intracarotid injection in mice
[8] = biological target: Amyloid plaques (fibrillar amyloid β deposits in brain tissue) (human AD brain; transgenic mouse models) (UniProt P05067); experiment: labeling, summary of Table 1
[9] = biological target: Amyloid plaques (fibrillar amyloid β deposits in brain tissue) (human AD brain; transgenic mouse models) (UniProt P05067); experiment: IHC after stereotaxic injection in TauPS2APP mice
[10] = biological target: Amyloid plaques (fibrillar amyloid β deposits in brain tissue) (human AD brain; transgenic mouse models) (UniProt P05067); experiment: IHC after stereotaxic injection
[11] = biological target: Amyloid plaques (fibrillar amyloid β deposits in brain tissue) (human AD brain; transgenic mouse models) (UniProt P05067); experiment: IHC after soaking of TauPS2APP mouse brains
[12] = biological target: Amyloid plaques (fibrillar amyloid β deposits in brain tissue) (human AD brain; transgenic mouse models) (UniProt P05067); experiment: IHC and ex vivo MRI after intracerebroventricular injection
[13] = biological target: Amyloid plaques (fibrillar amyloid β deposits in brain tissue) (human AD brain; transgenic mouse models) (UniProt P05067); experiment: IHC and MRI after intracerebroventricular injection
[14] = biological target: Amyloid plaques (fibrillar amyloid β deposits in brain tissue) (human AD brain; transgenic mouse models) (UniProt P05067); experiment: IHC after stereotaxic injection in mice
[15] = biological target: Amyloid plaques (fibrillar amyloid β deposits in brain tissue) (human AD brain; transgenic mouse models) (UniProt P05067); experiment: immunohistochemistry, B6 PS2APP mouse paraffin sections
[16] = biological target: Amyloid plaques (fibrillar amyloid β deposits in brain tissue) (human AD brain; transgenic mouse models) (UniProt P05067); experiment: immunohistochemistry, B6.PS2APP mouse paraffin sections
[17] = biological target: Amyloid plaques (fibrillar amyloid β deposits in brain tissue) (human AD brain; transgenic mouse models) (UniProt P05067); experiment: in vitro MRI
[18] = biological target: Amyloid plaques (fibrillar amyloid β deposits in brain tissue) (human AD brain; transgenic mouse models) (UniProt P05067); experiment: in vitro MRI of PS2APP mouse brains incubated with the conjugate
[19] = biological target: Amyloid plaques (fibrillar amyloid β deposits in brain tissue) (human AD brain; transgenic mouse models) (UniProt P05067); experiment: ex vivo MRI after intravenous injection in PS2APP mice
[20] = biological target: Amyloid plaques (fibrillar amyloid β deposits in brain tissue) (human AD brain; transgenic mouse models) (UniProt P05067); experiment: ex vivo MRI after iv injection
[21] = biological target: Amyloid plaques (fibrillar amyloid β deposits in brain tissue) (human AD brain; transgenic mouse models) (UniProt P05067); experiment: two-photon imaging
[22] = biological target: Amyloid angiopathy (CAA), vascular amyloid β deposits (human AD brain; transgenic mouse models) (UniProt P05067); experiment: two-photon imaging
[23] = biological target: Amyloid plaques (fibrillar amyloid β deposits in brain tissue) (human AD brain; transgenic mouse models) (UniProt P05067); experiment: two-photon microscopy and IHC after intravenous injection
[24] = biological target: Amyloid plaques (fibrillar amyloid β deposits in brain tissue) (human AD brain; transgenic mouse models) (UniProt P05067); experiment: IHC with anti-His mAb after iv injection
[25] = biological target: Amyloid angiopathy (CAA), vascular amyloid β deposits (human AD brain; transgenic mouse models) (UniProt P05067); experiment: two-photon microscopy after intravenous injection
[26] = biological target: Amyloid plaques (fibrillar amyloid β deposits in brain tissue) (human AD brain; transgenic mouse models) (UniProt P05067); experiment: two-photon microscopy after topic brain infusion
[27] = biological target: Amyloid angiopathy (CAA), vascular amyloid β deposits (human AD brain; transgenic mouse models) (UniProt P05067); experiment: two-photon microscopy after topic brain infusion
[28] = biological target: Amyloid angiopathy (CAA), vascular amyloid β deposits (human AD brain; transgenic mouse models) (UniProt P05067); experiment: two-photon imaging after iv injection
[29] = biological target: Amyloid plaques (fibrillar amyloid β deposits in brain tissue) (human AD brain; transgenic mouse models) (UniProt P05067); experiment: immunohistochemistry on PS2APP brain slices

Measured: binding

B1: VHH R3VE (VHH, not shown: small tags and cut ends)
VHH: EVQLEASGGGLVQTGDSLRLSCADSGSTFRNYNIGWFRQTPGQAREFVAAVSRTGISTHVADSLQGRFTISRDNAKNTVYLQMNSLKPEDTAVYSCAAGRPGVGAVNRAMDYDYWGQGTQVTVSS
binds: [1] | [2]

B2: VHH R3VQ (VHH, not shown: large carriers)
VHH: EVQLQASGGGLVQTGDSLRLSCADSGSTFRNYNIGWFRQTPGQAREFVAAVSRTGISTHVADSLQGRFTISRDNAKNTVYLQMNSLKPEDTAVYSCAAGRPGVGAVNRAMDYDYWGQGTQVTVSS
binds: [3] | [4] | [5] | [6] | [7] | [8] | [9]

B3: R3VQ-N-(DOTA/Gd)1-2 conjugate 2e (VHH, not shown: small tags and cut ends)
VHH: EVQLQASGGGLVQTGDSLRLSCADSGSTFRNYNIGWFRQTPGQAREFVAAVSRTGISTHVADSLQGRFTISRDNAKNTVYLQMNSLKPEDTAVYSCAAGRPGVGAVNRAMDYDYWGQGTQVTVSS
modifications: DOTA/Gd randomly on lysine residues; average Gd/protein (0) 1 2 (3)
binds: [10] | [11] | [12] | [13] | [14]

B4: R3VQ-SH (Cys-engineered R3VQ VHH) (VHH)
VHH: AVQLQASGGGLVQTGDSLRLSCADSGSTFRNYNIGWFRQTPGQAREFVAAVSRTGISTHVADSLQGRFTISRDNAKNTVYLQMNSLKPEDTAVYSCAAGRPGVGAVNRAMDYDYWGQGTQVTVGG
binds: [15] | [16]

B5: R3VQ-S-(DOTA/Gd)3 (VHH)
VHH: AVQLQASGGGLVQTGDSLRLSCADSGSTFRNYNIGWFRQTPGQAREFVAAVSRTGISTHVADSLQGRFTISRDNAKNTVYLQMNSLKPEDTAVYSCAAGRPGVGAVNRAMDYDYWGQGTQVTVGG
modifications: maleimido-(DOTA/Gd)3 compound 4 on the engineered C-terminal Cys (thio-addition)
binds: [3] | [17] | [18] | [19] | [20]

B6: R3VQ-S-AF488 (VHH)
VHH: AVQLQASGGGLVQTGDSLRLSCADSGSTFRNYNIGWFRQTPGQAREFVAAVSRTGISTHVADSLQGRFTISRDNAKNTVYLQMNSLKPEDTAVYSCAAGRPGVGAVNRAMDYDYWGQGTQVTVGG
modifications: single maleimido-Alexa Fluor 488 (AF488) on the engineered C-terminal Cys
binds: [21] | [22] | [23] | [24] | [25] | [26] | [27] | [28] | [29]
